Results are given in words; binding and its absence hold for the method and conditions named. Some entries that bind do so weakly or less than the wild type.
Tests used:
[1] = target: human α10β1 (human) (UniProt O75578+P05556); assay: off-target counter-screen
[2] = target: human α1β1 (human) (UniProt P56199+P05556); assay: off-target counter-screen
[3] = target: human α2β1 (human) (UniProt P17301+P05556); assay: off-target counter-screen
[4] = target: recombinant human α11β1 (human) (UniProt Q9UKX5+P05556); assay: ELISA on recombinant human α11β1
[5] = target: recombinant mouse α11β1 (mouse) (UniProt P61622+P09055); assay: ELISA on recombinant mouse α11β1
[6] = target: in-house generated I domain of α11β1 (human) (UniProt Q9UKX5); assay: binding to isolated I domain
[7] = target: in-house generated I domain of α11β1 (human) (UniProt Q9UKX5); assay: ELISA on the human α11β1 I domain
[8] = target: in-house generated I domain of α11β1 (human) (UniProt Q9UKX5); assay: SPR
[9] = target: in-house generated I domain of α11β1 (human) (UniProt Q9UKX5); assay: SPR, single-cycle injections of 33, 100 and 300 nM over the a11b1 I Domain
[10] = target: in-house generated I domain of α11β1 (human) (UniProt Q9UKX5); assay: ELISA on in-house I domain

Protein sequences, listed by entry. Tags and fused reporters are not part of them. Lines headed by an entry give the natural chain unless they say otherwise; changes in a name come on top. Residues count along the entry.
UniProt O75578: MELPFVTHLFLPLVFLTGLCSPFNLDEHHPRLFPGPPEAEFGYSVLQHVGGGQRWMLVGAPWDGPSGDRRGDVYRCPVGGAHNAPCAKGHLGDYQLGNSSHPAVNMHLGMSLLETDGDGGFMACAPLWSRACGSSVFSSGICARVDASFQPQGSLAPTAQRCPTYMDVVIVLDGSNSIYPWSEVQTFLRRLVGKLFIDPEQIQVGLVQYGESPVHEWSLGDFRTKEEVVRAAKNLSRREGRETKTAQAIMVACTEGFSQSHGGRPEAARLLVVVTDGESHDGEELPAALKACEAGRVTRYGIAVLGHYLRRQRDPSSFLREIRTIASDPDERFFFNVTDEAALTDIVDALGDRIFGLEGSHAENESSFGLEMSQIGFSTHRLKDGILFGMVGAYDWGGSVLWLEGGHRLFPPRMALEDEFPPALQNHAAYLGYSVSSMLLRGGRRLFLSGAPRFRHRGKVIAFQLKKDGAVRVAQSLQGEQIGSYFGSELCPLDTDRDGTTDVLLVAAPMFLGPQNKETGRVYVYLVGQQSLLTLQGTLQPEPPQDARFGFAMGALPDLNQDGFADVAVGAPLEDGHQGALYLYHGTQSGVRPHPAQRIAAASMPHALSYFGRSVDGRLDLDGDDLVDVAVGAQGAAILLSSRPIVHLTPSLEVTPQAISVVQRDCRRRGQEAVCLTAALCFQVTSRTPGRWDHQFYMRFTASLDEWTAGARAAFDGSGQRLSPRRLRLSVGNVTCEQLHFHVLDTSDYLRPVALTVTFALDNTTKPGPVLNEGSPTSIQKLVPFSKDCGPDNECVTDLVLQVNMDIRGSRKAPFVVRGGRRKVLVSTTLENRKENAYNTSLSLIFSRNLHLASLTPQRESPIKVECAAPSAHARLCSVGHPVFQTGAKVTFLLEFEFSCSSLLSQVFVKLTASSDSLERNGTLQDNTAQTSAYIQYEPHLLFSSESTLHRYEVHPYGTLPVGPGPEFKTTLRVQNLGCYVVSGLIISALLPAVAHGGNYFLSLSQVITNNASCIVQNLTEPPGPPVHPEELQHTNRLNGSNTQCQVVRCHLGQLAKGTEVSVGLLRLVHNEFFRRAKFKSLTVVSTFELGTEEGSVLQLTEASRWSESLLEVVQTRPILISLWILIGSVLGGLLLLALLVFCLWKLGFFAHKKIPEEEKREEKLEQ
UniProt P05556: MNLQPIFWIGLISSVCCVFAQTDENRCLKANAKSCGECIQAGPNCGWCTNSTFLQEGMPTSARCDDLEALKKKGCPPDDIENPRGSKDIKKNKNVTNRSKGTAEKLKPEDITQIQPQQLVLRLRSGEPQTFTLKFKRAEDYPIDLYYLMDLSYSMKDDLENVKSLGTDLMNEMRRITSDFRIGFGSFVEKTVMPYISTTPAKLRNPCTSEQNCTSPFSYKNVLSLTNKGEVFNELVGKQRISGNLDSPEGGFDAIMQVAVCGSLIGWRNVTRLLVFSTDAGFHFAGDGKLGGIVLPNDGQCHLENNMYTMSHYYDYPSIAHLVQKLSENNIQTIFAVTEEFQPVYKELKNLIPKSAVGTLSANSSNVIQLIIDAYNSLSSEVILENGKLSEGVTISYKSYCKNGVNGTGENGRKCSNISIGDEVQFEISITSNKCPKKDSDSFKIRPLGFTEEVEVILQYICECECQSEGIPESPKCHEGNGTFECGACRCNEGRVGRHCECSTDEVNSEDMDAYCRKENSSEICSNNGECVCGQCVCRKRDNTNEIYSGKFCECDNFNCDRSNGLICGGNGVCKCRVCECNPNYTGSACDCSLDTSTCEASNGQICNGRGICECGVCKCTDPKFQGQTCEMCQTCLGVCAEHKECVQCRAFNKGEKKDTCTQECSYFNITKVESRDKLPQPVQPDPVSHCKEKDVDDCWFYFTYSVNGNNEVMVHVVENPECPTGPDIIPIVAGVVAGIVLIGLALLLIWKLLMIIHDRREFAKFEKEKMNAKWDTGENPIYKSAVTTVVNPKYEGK
UniProt P56199: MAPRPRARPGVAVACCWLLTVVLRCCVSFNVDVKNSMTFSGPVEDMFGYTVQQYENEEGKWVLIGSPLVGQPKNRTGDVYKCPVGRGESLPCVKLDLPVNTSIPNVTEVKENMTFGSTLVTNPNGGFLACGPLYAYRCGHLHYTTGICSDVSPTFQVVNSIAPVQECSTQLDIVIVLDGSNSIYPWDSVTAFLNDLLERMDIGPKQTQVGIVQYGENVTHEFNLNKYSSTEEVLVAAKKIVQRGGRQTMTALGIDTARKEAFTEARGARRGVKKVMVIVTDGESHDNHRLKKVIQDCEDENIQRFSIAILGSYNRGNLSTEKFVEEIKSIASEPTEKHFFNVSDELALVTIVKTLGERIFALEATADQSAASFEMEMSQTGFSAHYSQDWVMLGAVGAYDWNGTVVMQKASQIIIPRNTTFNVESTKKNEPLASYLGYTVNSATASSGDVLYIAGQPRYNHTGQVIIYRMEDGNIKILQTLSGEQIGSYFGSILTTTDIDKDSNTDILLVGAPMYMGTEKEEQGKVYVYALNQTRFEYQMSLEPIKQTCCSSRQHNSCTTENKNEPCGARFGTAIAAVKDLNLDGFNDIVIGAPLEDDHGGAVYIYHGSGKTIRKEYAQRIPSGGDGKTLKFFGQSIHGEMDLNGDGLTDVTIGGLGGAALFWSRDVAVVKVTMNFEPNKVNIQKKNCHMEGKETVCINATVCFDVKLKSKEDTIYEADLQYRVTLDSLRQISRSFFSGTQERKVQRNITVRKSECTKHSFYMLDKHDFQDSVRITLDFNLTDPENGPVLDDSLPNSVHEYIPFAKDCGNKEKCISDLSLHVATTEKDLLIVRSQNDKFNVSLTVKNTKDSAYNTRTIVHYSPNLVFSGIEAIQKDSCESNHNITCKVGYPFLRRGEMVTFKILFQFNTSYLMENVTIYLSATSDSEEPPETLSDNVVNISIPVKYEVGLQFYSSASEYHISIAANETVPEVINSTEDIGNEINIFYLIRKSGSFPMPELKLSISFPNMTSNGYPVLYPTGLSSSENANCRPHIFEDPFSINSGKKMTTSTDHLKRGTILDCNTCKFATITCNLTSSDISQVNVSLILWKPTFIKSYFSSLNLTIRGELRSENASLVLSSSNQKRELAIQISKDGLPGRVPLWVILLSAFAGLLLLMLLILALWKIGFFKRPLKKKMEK
UniProt P17301: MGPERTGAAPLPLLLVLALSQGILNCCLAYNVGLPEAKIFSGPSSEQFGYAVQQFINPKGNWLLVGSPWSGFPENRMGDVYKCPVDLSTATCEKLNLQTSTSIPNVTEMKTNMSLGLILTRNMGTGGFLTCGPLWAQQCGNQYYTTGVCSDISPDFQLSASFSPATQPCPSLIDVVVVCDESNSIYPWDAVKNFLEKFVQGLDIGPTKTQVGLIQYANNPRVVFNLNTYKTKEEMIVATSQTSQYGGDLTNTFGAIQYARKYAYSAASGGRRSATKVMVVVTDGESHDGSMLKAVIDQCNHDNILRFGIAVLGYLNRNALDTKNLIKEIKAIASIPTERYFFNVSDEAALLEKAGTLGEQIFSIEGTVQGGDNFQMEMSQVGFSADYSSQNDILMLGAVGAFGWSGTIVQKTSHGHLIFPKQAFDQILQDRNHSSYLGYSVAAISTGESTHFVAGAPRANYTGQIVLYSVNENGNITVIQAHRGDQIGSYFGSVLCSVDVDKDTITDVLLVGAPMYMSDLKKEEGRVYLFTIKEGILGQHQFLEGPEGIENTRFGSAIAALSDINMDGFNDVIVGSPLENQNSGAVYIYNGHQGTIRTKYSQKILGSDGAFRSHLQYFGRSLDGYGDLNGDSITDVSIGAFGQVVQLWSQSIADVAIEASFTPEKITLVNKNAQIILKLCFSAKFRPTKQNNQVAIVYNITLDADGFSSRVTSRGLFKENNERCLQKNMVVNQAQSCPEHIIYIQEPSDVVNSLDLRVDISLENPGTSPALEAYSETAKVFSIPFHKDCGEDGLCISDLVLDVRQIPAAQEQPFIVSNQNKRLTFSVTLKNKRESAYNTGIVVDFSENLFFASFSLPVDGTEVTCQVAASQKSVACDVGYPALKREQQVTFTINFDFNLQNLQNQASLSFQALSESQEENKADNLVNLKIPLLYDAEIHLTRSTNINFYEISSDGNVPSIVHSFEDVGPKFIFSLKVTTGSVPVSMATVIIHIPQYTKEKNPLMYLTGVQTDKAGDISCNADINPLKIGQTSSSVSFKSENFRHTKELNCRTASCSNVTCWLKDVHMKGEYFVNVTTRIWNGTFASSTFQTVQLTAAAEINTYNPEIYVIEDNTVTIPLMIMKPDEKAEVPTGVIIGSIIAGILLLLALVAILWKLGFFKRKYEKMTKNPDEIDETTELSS
UniProt Q9UKX5, residues 159-349: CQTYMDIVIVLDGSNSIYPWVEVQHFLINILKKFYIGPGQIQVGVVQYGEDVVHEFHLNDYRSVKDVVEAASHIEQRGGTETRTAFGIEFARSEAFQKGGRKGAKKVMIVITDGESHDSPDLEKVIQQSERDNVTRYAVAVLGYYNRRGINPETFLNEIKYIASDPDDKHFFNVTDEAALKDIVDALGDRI
UniProt P61622: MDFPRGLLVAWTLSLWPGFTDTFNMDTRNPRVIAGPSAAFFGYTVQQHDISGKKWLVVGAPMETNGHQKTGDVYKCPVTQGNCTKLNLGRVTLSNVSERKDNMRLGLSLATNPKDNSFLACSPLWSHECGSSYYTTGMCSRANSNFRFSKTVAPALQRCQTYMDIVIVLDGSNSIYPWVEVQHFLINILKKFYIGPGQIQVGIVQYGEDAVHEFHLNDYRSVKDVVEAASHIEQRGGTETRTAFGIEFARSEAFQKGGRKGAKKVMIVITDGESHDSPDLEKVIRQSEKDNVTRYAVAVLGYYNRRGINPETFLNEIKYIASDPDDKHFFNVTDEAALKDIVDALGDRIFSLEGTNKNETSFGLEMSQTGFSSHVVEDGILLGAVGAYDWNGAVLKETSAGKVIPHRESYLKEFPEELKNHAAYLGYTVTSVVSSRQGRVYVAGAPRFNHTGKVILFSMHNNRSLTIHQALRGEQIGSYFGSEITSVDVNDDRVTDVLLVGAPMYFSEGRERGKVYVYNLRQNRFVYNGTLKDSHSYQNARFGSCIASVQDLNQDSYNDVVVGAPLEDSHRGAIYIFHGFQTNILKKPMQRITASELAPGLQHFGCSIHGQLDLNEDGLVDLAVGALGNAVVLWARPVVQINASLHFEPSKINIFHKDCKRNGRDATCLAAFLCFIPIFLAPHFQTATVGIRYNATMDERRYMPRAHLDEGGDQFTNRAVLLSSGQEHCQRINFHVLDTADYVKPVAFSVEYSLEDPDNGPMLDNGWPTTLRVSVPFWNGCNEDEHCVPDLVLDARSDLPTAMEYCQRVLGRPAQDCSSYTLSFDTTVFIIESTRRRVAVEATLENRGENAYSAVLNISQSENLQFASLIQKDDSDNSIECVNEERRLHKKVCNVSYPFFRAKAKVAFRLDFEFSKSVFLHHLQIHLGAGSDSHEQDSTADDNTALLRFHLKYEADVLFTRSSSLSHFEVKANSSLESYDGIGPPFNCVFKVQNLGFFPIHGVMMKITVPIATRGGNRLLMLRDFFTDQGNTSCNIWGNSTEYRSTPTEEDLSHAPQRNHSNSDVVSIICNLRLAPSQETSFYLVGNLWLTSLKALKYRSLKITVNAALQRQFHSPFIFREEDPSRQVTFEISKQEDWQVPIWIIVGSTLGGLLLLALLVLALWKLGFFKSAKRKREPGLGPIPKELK
UniProt P09055: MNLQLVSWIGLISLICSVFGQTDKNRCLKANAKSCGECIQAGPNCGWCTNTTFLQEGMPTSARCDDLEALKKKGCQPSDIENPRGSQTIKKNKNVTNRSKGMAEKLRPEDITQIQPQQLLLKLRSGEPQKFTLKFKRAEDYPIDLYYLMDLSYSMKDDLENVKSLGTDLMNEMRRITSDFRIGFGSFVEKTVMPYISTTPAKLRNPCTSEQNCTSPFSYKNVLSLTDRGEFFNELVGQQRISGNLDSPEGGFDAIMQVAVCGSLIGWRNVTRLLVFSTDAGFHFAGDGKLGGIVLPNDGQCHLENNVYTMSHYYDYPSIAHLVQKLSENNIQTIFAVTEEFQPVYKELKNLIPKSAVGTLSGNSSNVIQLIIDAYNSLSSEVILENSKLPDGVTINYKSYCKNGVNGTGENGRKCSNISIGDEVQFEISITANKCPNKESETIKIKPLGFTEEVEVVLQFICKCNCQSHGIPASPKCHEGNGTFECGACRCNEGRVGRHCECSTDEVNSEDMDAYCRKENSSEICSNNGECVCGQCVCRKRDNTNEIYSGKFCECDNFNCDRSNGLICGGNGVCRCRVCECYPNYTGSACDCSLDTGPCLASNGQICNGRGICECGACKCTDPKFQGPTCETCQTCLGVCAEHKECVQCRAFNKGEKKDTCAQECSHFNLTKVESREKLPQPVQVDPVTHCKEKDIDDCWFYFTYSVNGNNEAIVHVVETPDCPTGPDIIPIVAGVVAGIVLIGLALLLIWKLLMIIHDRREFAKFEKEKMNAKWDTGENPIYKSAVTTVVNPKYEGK

Binder | binding [6] | binding [7] | also measured
40G10H11 (antibody, V domains shown) VH: AVQLVESGGGLVQPGRSLKLSCAASRITFTDYYMAWVRQAPTKGLEWVATISSDGGDTFYRDSVKGRFTISRDNAKSTLYLQMVSLRSEDTATYYCSTDRGAQFGYWGQGTLVTVSS VL: DIQMTQSPSFLSASVGDRVSINCKASQNVHENLNWYQQKLGEAPKRLIYNTNNLQTGIPSRFSGSGSGADYTLTISSLQPEDFATYFCLQHNAFPYTFGPGTKLELK |  |  | binding [1]: binds; binding [2]: binds; binding [3]: binds; binding [4]: binds; binding [5]: binds
9-E16 (antibody, V domains shown) VH: EVQLQQSGPELVKPGASVKISCKASGYTFTDYYMHWVKQKPGQGLEWIGEIYPGSGNPYYNEKFKGKATLTADKSSSSAYMQLSSLTSEDSAVYFCARTSYGRVGTGFAYWGQGTLVTVSA VL: NFVMTQTPLSLPVSLGDQASISCRSSQSLLHSNGNTYLHWYLQKPGQSPKLLIYKVSNRFSGVPDRFSGSGSGTDFTLKINRVETEDLGIYFCSQSSHVPTFGAGTKLELK | binds | binds | 
10-L15 (antibody, V domains shown) VH: QVQLQQSGPELVRPGASVKMSCKASGYTFTSYWMHWVKQRPGQGLEWIGMIDPSNSETWLNQKFKDKATLNVDKSSNTAYMQLSSLTSEDSAVYYCARYDGYYDYWGQGTTLTVSS VL: NIVLTQSPASLAVSLGQRATISCRASESVDSYGNSFMHWYQQKPGQPPKLLIYLASNVESGVPARFSGSGSRTDFTLTIDPVEADDAATYYCQQNNEDPWTFGGGTKLEIK | binds |  | 
79E3E3 (antibody, V domains shown) VH: QIQLVQSGPEVKKPGESVKISCKASGYTFTDYAMNWVKQAPGNGLKWMGWINTQTGKPTYADDFKQRFVFSLETSARTTYLQINNLNIEDTATYFCTRLGTGNTKGFAYWGQGTLVTVSS VL: DILINQSPASLTVSAGERVTMSCKSSQSLLYSENNQDYLAWYQQKPGQFPKLLIYGASNRHTGVPDRFTGSGSGTDFTLTISSVQAEDLADYYCEQTYRYPFTFGSGTKLEIK | binds | binds | binding [8]: binds; binding [10]: binds; binding [9]: binds

More lines, main results first:

binding [6] | binding [7] | Binder | also measured
binds |  | 10-F23 (antibody, V domains shown) VH: QVTLKESGPGILQPSQTLSLTCSFSGFSLSTFAMGVGWIRQPSGKGLEWLAHIWWDDDKYYNPALKSRLTISKDTSKNHVFLKIANVDTADTATYYCARMPLTFYFDYWGQGTTLTVSS VL: DVLLTQTPLSLPVSLGDQASISCRSSQSIVHSNGHTYLEWYLQKPGQSPKLLIYKVSNRFSGVPDRFSGSGSGTDFTLKISRVEAEDLGVYYCFQGSHVPFTFGGGTKLEIK | 
binds |  | 6-A12 (antibody, V domains shown) VH: QVTLKESGPGILQPSQTLSLTCSFSGFSLRTFAMGVGWIRQPSGKGLEWLAHIWWDDDKYYNPALKSRLTISKDTSKNQVFLKIANVDTADTATYYCARMPLTFYFDYWGQGTTLTVSS VL: DVLMTQTPLSLPVSLGDQASISCRSSQSIVHSNGNTYLEWYLQKPGQSPKLLIYKVSTRFSGVPDRFSGSGSGTDFTLKISRVEAEDLGVYYCFQGSHVPFTFGGGTKLEIK | 
binds |  | 9-B11 (antibody, V domains shown) VH: QVQLQQPGAELVRPGTSVKLSCKASGYTFTSYWMHWVQQRPGQGLEWIGVIDPSDSYTNYNQKFKGKATLTVDTSSSSAYMQLSSLTSEDSAVYYCARDDVAMDYWGQGTSVTVSS VL: DIVVTQSPASLAVSLGQRATISCRASESVDSYGNSFIHWYQQKPGQPPKLLIYRASNLKSGIPARFSGSGSRTDFTLTINPVEADDVATYYCQQSNEDPYTFGGGTKLEIK | 
binds | binds | 9-G05 (antibody, V domains shown) VH: EVQLQQSGPELVKPGASVKIPCKASGYTFPDYNMDWVKQSHGKSLEWIGYINPDNGGTIYNQKFKGKATLTVDKSSSTAYMELRSLTSEDTAVYYCARLDSSGYGYYAMDYWGQGTSVTVSS VL: DIVLTQSPASLAVSLGQRATISCRASESVDNYGISFMHWYQQKPGQPPKLLIYRASNLDSEIPARFSGSGSRTDFTLTIDPVETDDVATYYCQQSYKDPRTFGGGTKLEIK | binding [8]: binds; binding [9]: binds

— US20230050972A1
